From the supplement of paper PMC12819154, “High-throughput peptide-centric local stability assay extends protein–ligand identification to membrane proteins, tissues and bacteria” (Nature Structural & Molecular Biology, 2025)
Some of the results follow. Most entries show no effect beyond the scatter of the controls.

The chains behind the UniProt entries cited, without tags or fusion partners. Where a name states a change or a piece, a line headed by the entry shows the natural chain unless it says otherwise.
UniProt Q9CXN7: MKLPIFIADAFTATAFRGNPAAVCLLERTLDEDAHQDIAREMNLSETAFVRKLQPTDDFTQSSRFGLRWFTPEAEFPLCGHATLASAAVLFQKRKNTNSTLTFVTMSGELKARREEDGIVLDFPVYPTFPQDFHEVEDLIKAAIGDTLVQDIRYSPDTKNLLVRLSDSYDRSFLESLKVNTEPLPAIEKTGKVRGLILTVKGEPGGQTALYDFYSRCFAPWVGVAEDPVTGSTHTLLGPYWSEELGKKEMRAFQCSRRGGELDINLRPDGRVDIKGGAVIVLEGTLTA
UniProt Q9CR61: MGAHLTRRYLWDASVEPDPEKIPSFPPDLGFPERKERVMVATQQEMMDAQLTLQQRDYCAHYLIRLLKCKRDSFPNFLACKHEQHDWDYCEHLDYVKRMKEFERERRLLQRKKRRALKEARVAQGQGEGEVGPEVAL
UniProt Q9CYR6: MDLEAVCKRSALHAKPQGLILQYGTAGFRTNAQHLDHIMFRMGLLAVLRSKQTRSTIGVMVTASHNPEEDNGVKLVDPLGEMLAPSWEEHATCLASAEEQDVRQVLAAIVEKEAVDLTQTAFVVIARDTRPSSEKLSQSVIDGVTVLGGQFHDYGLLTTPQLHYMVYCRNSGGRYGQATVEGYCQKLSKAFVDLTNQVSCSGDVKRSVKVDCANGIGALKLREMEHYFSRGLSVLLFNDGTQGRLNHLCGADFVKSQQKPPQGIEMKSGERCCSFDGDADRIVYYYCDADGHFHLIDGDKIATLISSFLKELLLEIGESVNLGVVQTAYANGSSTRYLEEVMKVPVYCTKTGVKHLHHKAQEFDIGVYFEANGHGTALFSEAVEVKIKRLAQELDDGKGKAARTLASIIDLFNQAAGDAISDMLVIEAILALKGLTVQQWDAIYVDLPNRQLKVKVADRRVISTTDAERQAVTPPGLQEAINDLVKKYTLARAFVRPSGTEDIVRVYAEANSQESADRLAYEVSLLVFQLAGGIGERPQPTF
UniProt Q9CXJ1: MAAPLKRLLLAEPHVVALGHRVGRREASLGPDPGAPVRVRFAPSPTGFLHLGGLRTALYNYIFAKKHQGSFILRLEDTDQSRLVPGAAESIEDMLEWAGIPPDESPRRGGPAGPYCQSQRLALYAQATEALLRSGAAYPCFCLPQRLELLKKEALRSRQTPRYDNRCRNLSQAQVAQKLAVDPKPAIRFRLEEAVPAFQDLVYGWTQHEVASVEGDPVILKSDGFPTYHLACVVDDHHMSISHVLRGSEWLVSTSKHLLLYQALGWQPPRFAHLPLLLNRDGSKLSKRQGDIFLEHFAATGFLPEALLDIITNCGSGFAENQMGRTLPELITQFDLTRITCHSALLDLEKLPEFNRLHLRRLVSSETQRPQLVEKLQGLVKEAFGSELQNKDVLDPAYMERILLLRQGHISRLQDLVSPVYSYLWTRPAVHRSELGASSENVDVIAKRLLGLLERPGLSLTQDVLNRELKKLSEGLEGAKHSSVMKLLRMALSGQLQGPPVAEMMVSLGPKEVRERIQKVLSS
UniProt Q9CSV6: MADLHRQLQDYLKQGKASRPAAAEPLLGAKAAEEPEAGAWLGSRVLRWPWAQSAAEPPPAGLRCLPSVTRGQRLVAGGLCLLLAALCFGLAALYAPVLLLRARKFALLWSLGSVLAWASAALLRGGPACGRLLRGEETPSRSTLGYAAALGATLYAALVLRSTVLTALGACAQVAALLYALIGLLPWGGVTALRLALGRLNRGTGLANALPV
UniProt Q9D0C4: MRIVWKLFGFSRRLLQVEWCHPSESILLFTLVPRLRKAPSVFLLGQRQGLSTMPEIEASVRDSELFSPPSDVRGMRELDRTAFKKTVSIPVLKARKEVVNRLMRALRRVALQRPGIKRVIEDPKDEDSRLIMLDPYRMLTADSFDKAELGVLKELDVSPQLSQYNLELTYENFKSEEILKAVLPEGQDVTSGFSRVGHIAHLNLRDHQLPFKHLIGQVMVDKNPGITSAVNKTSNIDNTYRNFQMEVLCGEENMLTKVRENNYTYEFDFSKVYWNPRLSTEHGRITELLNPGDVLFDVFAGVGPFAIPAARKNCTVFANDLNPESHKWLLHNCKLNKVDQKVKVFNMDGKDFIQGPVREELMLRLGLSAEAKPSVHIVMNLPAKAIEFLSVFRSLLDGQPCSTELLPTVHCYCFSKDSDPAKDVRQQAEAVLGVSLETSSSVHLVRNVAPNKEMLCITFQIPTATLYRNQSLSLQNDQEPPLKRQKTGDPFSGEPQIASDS
UniProt Q9CY58: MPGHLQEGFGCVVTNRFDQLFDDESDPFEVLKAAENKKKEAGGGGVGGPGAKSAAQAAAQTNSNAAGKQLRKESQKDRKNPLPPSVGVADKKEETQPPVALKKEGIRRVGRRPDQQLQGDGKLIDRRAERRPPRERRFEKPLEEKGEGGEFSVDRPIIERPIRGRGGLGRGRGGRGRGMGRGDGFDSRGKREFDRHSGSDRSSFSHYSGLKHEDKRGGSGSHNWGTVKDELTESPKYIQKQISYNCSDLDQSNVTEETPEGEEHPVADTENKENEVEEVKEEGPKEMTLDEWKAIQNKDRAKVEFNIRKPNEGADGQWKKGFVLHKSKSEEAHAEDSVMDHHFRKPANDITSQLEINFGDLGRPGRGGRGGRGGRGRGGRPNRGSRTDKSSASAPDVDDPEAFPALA
UniProt Q9CWS4, whole entry: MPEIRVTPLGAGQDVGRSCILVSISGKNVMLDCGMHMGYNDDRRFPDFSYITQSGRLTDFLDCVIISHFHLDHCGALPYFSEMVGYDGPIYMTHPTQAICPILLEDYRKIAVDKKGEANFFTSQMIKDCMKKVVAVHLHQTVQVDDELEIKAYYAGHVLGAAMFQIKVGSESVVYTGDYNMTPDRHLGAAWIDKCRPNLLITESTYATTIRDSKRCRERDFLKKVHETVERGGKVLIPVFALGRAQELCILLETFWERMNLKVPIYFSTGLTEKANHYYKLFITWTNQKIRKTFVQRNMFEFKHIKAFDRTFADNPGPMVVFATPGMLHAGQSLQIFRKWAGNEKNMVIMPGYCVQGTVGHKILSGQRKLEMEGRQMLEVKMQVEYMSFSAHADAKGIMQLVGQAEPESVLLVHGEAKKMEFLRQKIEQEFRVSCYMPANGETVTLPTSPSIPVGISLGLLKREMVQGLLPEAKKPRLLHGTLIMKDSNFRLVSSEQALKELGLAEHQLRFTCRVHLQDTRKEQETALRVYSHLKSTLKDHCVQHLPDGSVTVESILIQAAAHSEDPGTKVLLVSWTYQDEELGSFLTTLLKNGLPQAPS
UniProt Q9D067: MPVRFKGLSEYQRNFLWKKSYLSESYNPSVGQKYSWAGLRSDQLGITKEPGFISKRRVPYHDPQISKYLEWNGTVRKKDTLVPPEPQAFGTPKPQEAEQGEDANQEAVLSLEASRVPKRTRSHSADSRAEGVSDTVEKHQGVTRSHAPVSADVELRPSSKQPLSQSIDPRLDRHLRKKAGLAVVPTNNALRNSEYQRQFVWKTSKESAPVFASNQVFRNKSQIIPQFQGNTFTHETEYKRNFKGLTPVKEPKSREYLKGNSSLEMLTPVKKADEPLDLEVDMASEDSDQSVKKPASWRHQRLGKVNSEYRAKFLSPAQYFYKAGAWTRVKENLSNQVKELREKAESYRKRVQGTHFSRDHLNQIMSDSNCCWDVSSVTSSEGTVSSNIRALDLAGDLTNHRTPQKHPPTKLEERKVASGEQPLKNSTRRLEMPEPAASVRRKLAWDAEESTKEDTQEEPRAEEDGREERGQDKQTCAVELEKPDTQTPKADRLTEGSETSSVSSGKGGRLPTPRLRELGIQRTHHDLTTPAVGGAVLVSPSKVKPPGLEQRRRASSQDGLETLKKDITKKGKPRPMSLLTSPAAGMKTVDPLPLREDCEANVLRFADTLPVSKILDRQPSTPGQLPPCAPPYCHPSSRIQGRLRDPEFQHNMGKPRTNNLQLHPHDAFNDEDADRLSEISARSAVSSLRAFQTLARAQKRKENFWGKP
UniProt Q9CZX9, whole entry: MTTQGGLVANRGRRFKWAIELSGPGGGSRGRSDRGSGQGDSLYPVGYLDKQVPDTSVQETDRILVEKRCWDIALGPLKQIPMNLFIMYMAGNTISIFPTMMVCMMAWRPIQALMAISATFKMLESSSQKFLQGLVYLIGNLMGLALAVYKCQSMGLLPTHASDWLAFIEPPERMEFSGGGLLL
UniProt Q9CXF4: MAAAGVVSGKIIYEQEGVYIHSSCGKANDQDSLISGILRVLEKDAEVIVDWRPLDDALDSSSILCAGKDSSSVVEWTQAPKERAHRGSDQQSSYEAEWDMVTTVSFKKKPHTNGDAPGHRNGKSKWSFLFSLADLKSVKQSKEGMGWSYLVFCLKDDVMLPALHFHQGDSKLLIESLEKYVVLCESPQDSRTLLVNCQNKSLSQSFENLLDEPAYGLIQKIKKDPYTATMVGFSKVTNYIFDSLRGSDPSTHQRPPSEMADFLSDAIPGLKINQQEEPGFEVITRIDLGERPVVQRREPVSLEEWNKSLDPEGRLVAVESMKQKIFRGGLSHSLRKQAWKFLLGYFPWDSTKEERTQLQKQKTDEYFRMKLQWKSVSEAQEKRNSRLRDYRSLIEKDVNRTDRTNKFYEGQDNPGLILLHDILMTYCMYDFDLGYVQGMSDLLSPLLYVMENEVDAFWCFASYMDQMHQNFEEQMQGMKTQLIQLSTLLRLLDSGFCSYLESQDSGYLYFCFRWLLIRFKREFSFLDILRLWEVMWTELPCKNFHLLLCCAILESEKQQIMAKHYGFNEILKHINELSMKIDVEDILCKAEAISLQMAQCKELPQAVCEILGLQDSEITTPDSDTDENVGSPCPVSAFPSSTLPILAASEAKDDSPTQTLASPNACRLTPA
UniProt Q9CXE2, whole entry: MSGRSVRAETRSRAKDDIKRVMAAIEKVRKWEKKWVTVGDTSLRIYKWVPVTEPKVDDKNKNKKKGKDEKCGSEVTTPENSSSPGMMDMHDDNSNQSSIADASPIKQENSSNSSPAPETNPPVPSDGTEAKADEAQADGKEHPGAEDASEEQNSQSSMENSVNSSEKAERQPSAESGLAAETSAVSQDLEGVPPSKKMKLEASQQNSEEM
UniProt Q9CX66: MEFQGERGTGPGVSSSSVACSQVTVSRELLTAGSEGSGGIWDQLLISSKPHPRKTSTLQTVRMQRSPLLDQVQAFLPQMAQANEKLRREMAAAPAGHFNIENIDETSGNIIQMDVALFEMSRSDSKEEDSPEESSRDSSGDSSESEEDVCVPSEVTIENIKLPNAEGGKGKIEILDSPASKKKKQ
UniProt Q9CX11: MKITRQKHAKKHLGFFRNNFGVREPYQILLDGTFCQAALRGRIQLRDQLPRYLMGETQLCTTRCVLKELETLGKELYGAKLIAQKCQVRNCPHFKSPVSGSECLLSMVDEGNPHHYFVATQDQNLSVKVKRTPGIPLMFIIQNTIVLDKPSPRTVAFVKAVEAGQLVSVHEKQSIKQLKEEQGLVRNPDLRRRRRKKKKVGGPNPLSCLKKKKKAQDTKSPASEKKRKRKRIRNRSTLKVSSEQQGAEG
UniProt Q9CYH6: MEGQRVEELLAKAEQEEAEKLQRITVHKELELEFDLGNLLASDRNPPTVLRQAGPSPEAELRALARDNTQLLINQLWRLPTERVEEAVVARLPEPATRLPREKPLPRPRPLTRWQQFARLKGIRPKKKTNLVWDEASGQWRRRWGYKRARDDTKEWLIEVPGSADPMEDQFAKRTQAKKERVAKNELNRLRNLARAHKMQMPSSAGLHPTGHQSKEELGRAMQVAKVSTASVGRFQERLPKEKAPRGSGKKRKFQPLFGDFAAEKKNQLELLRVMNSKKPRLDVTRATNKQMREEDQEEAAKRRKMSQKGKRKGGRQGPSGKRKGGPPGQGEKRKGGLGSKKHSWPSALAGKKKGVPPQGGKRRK
UniProt Q9CWY3: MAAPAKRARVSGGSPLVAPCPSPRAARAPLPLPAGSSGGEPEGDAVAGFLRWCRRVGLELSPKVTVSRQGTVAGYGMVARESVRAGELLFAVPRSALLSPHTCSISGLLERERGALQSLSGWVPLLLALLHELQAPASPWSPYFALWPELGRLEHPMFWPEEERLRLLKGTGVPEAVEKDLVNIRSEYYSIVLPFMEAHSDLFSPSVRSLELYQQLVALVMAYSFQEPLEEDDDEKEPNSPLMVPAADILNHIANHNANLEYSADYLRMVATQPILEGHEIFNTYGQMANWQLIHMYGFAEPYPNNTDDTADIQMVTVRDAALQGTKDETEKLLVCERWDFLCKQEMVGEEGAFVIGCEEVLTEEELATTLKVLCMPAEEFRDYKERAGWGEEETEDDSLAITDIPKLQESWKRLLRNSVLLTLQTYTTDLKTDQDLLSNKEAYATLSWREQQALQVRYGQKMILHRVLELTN
UniProt Q9CYG7: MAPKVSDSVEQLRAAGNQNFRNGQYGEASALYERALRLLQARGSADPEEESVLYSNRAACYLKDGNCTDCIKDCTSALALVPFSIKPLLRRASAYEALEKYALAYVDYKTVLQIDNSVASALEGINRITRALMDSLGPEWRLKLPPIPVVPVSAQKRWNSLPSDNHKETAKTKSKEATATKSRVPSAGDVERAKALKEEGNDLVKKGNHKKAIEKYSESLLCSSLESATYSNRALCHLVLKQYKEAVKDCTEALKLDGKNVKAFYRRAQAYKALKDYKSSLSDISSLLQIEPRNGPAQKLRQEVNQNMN

Each target was assayed with CN[C@@H]1C[C@H]2O[C@@](C)([C@@H]1OC)n1c3ccccc3c3c4c(c5c6ccccc6n2c5c31)C(=O)NC4 [staurosporine] (assay: log2 fold change of tryptic peptide abundance, ligand vs vehicle (limited proteolysis) (log2 ratio); higher = more trypsin-susceptible (destabilized)). Details: ligand concentration: 20 uM; sample: mouse liver crude lysate; replicate design: treated separately.

| Target | log2 fold change |
| --- | --- |
| UniProt Q9CW07 (peptide sequence: GAALPEQEELQEYRR, peptide start residue: 60) | 0.159 |
| UniProt Q9CXN7 (peptide sequence: RGGELDINLRPDGR, peptide start residue: 258) | -0.254 |
| UniProt Q9CZ62 (peptide sequence: FDASSDSETHR, peptide start residue: 801) | -0.476 |
| UniProt Q9CR61 (peptide sequence: DYCAHYLIR, peptide start residue: 57) | 0.0569 |
| UniProt Q9CYR6 (peptide sequence: LAQELDDGKGK, peptide start residue: 390) | -0.452 |
| UniProt Q9CXJ1 (peptide sequence: LQDLVSPVYSYLWTRPAVHR, peptide start residue: 413) | 0.259 |
| UniProt Q9CYI0 (peptide sequence: NNMNCEER, peptide start residue: 178) | -0.492 |
| UniProt Q9CSV6 (peptide sequence: GGPACGRLLR, peptide start residue: 125) | 0.155 |
| UniProt Q9D0U1 (peptide sequence: TSVCSQYVIR, peptide start residue: 204) | -0.334 |
| UniProt Q9CZU3 (peptide sequence: DLRPVDNR, peptide start residue: 747) | 0.197 |
| UniProt Q9CR63 (peptide sequence: MIAPAVLR, peptide start residue: 1) | 0.281 |
| UniProt Q9D0C4 (peptide sequence: TSNIDNTYR, peptide start residue: 233) | 0.235 |
| UniProt Q9CWU6 (peptide sequence: IIEAMGFTGPLK, peptide start residue: 92) | -0.448 |
| UniProt Q9CY58 (peptide sequence: SSFSHYSGLK, peptide start residue: 202) | 0.091 |
| UniProt Q9CR98 (peptide sequence: KMQGLMFR, peptide start residue: 27) | 0.141 |
| UniProt Q9CWS4 (peptide sequence: VHLQDTR, peptide start residue: 515) | -0.312 |

| Target | log2 fold change |
| --- | --- |
| UniProt Q9CXZ1 (peptide sequence: NGWSYDVEEK, peptide start residue: 141) | -0.137 |
| UniProt Q9CRC8 (peptide sequence: VLPEFPSCR, peptide start residue: 257) | 0.078 |
| UniProt Q9D067 (peptide sequence: SHAPVSADVELRPSSK, peptide start residue: 145) | 0.251 |
| UniProt Q9CZX9 (peptide sequence: FKWAIELSGPGGGSR, peptide start residue: 15) | 0.0837 |
| UniProt Q9CZU4 (peptide sequence: LNPQVLQCLTK, peptide start residue: 215) | 0.14 |
| UniProt Q9CXF4 (peptide sequence: HYGFNEILK, peptide start residue: 564) | 0.282 |
| UniProt Q9CXE2 (peptide sequence: WVPVTEPK, peptide start residue: 48) | 0.0848 |
| UniProt Q9CX66 (peptide sequence: KTSTLQTVR, peptide start residue: 54) | -0.32 |
| UniProt Q9CWV0 (peptide sequence: LQPGPADHIGAK, peptide start residue: 74) | -0.11 |
| UniProt Q9CWS1 (peptide sequence: IQEILHNLEEIQEK, peptide start residue: 186) | 0.101 |
| UniProt Q9CZ42 (peptide sequence: AILTPNHVEFSR, peptide start residue: 197) | -0.259 |
| UniProt Q9CX11 (peptide sequence: KKVGGPNPLSCLK, peptide start residue: 198) | 0.207 |
| UniProt Q9CYH6 (peptide sequence: KHSWPSALAGKK, peptide start residue: 342) | -0.204 |
| UniProt Q9CWY3 (peptide sequence: ARVSGGSPLVAPCPSPR, peptide start residue: 8) | 0.492 |
| UniProt Q9CYG7 (peptide sequence: ALMDSLGPEWR, peptide start residue: 131) | -0.174 |

As a working copy, some entries already given:

| Target | log2 fold change |
| --- | --- |
| UniProt Q9CYH6 (peptide sequence: KHSWPSALAGKK, peptide start residue: 342) | -0.204 |
| UniProt Q9CWY3 (peptide sequence: ARVSGGSPLVAPCPSPR, peptide start residue: 8) | 0.492 |
